Source: paper PMC3834315
Tags and fusion partners may be left off the protein sequences shown.

How the values were obtained:
[1] = target: T1, VapB10 (Synechocystis sp. PCC 6803) (UniProt P73044); test: competition with a labelled probe; details: 1 uM unlabeled P competes with labeled P; 100 mM Tris-HCl pH 8.0, 100 mM NaCl, 1 mM DTT, 10% glycerol, 0.1 mg/ml sonicated salmon sperm DNA, about 10 nM labeled DNA, 30 min at room temperature; 5% native PAGE; recombinant protein; residues 1-74; label: 5'-32P; probe letters rebuilt from the primers and the genome
T1 sequence (looked up): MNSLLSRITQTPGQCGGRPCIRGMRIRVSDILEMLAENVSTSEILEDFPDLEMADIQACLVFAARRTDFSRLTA

[2] = target: T1, VapB10 (Synechocystis sp. PCC 6803); test: EMSA; details: 100 mM Tris-HCl pH 8.0, 100 mM NaCl, 1 mM DTT, 10% glycerol, 0.1 mg/ml sonicated salmon sperm DNA, about 10 nM labeled DNA, 30 min at room temperature; 5% native PAGE; recombinant protein; residues 1-74; label: 5'-32P; probe letters rebuilt from the primers and the genome

“CGCTTCACTGAGCTGGTTGAGGTCAATTTTTTTATGCACCATAATGATTATTACAATTTTGCCAATGGAGATTAACTTTCCCTTCAGGGTAACGGCTGACTGACTTTTGATACGGAAATTTTGTTAGGGAGGAGAAAATCAAAAAATGCGATGTAGTATAAAAAAATCTTACTCGTATGAAATGATCTTAGTACACTAAATGAATAGCTTACTGTCTCGCATTACCCAAACCCCCGGTCAGTGTGGTGGTCGTCCTTGTATTCGAGGGATGAGGATTCGAGTGAGCGACATCGGATCCTTCTC (double strand) [fragment P (PvapBC10, 296 bp)]”: binds [1]; binds [2].
